Experimental findings from patent EP2359864B1 (Bracco Suisse SA, priority 2005, dated 2019) are described below.

This data set in a line: general procedure: Fmoc solid-phase peptide synthesis; Fmoc-Pal-Peg-PS resin (0.2 mmol/g); DIC/HOBt.
The mark [1] stands for this setting: purification step, on 0.5 g crude.
The mark [2] stands for this setting: whole synthesis, analytical reversed phase HPLC, UV 220 nm (plus ELSD for conjugates), scale of the general procedure 10 mmol.

Substance “Ac-AGPTWCEDDWYYCWLFGTGGGK[K(ivDde)]-NH2 cyclic (6-13) disulfide” registered a step yield under setting [1] of 20% yield. Further, under setting [2], the “final HPLC purity” value was above 95% purity. Also, under “whole synthesis, scale 10 mmol”, the crude mass is 30 g and the crude yield is reported as 103% of theory.
“Ac-RAQDWYYDEILSMADQLRHAFLSGGGGGK(DSPE-PEG2000-NH-Glut)-NH2 (SEQ ID NO. 1) (N-acetyl, C-amide, DSPE-PEG2000-NH-Glut lipid conjugate)” showed a conjugation yield (conjugation step) of 47% yield. For the same substance, the “final HPLC purity” value (conjugation step, UV 220 nm and ELSD) was above 98% purity.
On to “Ac-VCWEDSWGGEVCFRYDPGGGK(Adoa-Adoa)-NH2 cyclic (2-12) disulfide”, for which, under setting [1], the step yield is 24% yield. For the same substance, the “final HPLC purity” value under setting [2] is listed as above 95% purity. The substance further registered a crude mass (whole synthesis, scale 10 mmol) of 28 g.
As for “Ac-AGPTWCEDDWYYCWLFGTGGGK[Ac-VCWEDSWGGEVCFRYDPGGGK(-Adoa-Adoa-Glut-K)-NH2 cyclic (2-12) disulfide]-NH2 cyclic (6-13) disulfide”, the “final HPLC purity” value (conjugation step, analytical reversed phase HPLC, UV 220 nm (plus ELSD for conjugates)) is above 95% purity. The conjugation yield result was “∼32% yield” (conjugation step, from monomer peptides) and “overall yield 33%” (conjugation step, overall).
Take “Ac-AGPTWCEDDWYYCWLFGTGGGK{Ac-VCWEDSWGGEVCFRYDPGGGK[-Adoa-Adoa-Glut-K(DSPE-PEG2000-NH-Glut)]-NH2 cyclic (2-12) disulfide}-NH2 cyclic (6-13) disulfide”: the “final HPLC purity” value reads like this: (conjugation step, UV 220 nm and ELSD, acetate) >99% (area %); (purification step, UV 220 nm) 99.6%. For the same substance, for the setting “conjugation step, acetate”, the conjugation yield was 33.0%. Moreover, the “final purity (method not given)” value (purification step, LSD (ELSD)) is reported as 99.3%. The step yield entry (purification step, recovery, run 1) is “about 70%” and the step yield (purification step, recovery, run 2) is 83%.
